The other results are listed elsewhere or left out.
Experiments:
Assay in all cases: log2 fold change, soluble protein after heating vs DMSO (PISA); higher = thermal stabilisation; K562 cells, 10 uM, 30 min; active = over 0.2 and 3.5 SD of the protein, either way, in both replicates (recomputed)
[1] = compound: Cc1ccc(NC(=O)c2ccc(CN3CC[C@H](N(C)C)C3)c(C(F)(F)F)c2)cc1Nc1nccc(-c2cncnc2)n1 [bafetinib]
Method in brief: (§1)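 K562 cells at 2×10^6 cells/mL were treated for 30 min with 10 μM compound, and aliquots were heated for 3 min over 48°C-58°C before pooling. Extraction used PBS with 0.5% NP-40 at 4°C, and soluble protein was the supernatant after 21,000xg for 90 min, measured by TMTpro 16plex LC-MS/MS with channel sums equalised. Thermal stability values, relative to control samples and from duplicates, are log2 fold changes.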

Chains of the proteins cited; added tags and fusions are not shown. Lines headed by an entry give the natural chain unless they say otherwise; changes in a name come on top.
UniProt O75817: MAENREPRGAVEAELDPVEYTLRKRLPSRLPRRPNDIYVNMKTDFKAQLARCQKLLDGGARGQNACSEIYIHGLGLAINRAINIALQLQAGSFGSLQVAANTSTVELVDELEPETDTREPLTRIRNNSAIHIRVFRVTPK
UniProt Q7Z4H8: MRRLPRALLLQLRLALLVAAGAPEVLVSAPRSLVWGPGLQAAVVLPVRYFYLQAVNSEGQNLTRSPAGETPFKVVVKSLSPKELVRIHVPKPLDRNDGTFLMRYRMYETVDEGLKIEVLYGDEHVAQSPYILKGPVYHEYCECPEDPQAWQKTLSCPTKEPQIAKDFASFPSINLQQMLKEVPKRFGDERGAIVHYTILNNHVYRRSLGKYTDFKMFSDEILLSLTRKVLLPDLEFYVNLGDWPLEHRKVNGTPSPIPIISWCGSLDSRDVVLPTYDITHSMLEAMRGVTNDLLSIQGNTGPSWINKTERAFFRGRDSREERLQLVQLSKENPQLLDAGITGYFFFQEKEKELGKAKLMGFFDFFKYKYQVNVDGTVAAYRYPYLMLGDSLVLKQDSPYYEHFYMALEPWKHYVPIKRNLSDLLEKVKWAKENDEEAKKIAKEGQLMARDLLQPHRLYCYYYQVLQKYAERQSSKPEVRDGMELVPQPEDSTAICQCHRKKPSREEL
UniProt Q15165: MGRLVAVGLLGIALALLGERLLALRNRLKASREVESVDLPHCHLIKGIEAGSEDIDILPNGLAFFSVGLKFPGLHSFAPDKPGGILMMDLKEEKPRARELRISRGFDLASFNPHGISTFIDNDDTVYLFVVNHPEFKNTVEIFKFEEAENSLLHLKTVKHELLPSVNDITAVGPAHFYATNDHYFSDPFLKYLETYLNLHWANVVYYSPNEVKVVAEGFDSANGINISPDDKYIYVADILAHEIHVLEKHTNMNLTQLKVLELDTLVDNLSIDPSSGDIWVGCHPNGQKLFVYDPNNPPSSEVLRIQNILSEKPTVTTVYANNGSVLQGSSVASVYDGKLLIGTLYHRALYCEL
UniProt Q6PFW1: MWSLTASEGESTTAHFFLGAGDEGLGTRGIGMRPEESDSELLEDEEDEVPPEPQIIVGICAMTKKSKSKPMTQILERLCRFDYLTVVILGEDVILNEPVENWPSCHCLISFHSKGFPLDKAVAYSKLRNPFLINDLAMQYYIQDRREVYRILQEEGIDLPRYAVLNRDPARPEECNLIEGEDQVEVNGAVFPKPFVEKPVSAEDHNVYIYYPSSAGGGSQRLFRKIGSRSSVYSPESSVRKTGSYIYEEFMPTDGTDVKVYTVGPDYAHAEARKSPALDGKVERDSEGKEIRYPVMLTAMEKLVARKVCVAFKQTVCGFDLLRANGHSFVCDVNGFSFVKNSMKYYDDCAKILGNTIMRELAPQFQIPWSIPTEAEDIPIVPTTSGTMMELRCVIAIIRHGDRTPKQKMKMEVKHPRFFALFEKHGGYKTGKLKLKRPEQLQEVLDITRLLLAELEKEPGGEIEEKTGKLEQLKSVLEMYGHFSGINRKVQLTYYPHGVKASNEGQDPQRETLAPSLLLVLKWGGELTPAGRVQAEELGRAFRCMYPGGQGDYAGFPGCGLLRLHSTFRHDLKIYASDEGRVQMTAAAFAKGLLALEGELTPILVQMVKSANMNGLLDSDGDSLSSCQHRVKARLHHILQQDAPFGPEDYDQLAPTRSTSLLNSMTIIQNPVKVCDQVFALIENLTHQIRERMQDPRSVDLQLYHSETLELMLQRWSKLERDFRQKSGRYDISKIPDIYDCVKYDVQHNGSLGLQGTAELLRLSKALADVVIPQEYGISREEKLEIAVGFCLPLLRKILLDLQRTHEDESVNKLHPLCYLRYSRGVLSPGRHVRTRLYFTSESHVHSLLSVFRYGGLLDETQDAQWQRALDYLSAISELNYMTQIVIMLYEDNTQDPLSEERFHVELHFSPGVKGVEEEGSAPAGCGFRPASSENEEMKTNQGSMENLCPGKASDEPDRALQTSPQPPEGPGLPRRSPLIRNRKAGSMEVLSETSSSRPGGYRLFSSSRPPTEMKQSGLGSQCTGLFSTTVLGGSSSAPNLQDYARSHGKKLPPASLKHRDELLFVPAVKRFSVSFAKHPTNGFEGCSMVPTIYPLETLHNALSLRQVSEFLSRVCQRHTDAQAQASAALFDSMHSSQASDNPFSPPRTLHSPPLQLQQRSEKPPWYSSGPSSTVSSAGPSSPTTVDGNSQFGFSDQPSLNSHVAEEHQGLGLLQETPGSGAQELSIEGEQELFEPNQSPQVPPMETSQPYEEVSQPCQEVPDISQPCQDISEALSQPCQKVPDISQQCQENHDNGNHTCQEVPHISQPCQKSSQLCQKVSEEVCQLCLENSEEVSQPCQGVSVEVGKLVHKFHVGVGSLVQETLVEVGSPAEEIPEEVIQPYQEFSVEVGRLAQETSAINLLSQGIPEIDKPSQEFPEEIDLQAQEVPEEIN
UniProt Q9NW08: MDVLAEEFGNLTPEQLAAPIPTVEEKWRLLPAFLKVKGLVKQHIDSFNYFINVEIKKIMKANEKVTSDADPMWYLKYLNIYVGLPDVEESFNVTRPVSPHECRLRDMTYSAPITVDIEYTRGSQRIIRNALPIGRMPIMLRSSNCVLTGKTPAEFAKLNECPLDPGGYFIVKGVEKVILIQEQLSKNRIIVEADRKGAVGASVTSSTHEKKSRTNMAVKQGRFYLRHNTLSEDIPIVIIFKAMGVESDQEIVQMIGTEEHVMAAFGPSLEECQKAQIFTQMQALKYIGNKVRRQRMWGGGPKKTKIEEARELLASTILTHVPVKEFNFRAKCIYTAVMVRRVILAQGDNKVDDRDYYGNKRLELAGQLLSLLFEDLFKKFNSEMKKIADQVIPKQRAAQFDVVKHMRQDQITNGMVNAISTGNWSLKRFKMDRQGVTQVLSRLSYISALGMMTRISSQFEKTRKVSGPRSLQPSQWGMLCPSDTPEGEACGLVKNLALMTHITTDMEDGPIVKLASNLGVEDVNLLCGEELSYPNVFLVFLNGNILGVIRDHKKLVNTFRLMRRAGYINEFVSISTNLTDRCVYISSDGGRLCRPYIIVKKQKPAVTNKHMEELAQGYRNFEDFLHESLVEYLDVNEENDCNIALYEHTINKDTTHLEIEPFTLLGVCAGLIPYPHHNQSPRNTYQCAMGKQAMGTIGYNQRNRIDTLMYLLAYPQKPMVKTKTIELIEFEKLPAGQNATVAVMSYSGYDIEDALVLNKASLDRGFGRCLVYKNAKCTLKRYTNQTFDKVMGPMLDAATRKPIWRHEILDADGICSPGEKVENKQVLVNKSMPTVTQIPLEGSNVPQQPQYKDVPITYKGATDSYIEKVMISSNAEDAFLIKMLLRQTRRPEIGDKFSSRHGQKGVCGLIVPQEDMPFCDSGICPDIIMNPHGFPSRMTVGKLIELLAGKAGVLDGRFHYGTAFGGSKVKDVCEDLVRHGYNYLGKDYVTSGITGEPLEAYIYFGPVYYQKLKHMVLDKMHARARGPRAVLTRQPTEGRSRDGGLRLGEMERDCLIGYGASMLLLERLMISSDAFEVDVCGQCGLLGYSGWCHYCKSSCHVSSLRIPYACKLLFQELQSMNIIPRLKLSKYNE
UniProt O15318: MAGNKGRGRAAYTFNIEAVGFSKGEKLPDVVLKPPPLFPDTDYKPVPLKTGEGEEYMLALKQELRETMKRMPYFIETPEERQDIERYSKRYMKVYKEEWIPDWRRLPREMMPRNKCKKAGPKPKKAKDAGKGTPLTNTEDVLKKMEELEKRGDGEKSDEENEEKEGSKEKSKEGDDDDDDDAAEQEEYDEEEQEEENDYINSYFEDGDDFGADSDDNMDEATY
UniProt P29590: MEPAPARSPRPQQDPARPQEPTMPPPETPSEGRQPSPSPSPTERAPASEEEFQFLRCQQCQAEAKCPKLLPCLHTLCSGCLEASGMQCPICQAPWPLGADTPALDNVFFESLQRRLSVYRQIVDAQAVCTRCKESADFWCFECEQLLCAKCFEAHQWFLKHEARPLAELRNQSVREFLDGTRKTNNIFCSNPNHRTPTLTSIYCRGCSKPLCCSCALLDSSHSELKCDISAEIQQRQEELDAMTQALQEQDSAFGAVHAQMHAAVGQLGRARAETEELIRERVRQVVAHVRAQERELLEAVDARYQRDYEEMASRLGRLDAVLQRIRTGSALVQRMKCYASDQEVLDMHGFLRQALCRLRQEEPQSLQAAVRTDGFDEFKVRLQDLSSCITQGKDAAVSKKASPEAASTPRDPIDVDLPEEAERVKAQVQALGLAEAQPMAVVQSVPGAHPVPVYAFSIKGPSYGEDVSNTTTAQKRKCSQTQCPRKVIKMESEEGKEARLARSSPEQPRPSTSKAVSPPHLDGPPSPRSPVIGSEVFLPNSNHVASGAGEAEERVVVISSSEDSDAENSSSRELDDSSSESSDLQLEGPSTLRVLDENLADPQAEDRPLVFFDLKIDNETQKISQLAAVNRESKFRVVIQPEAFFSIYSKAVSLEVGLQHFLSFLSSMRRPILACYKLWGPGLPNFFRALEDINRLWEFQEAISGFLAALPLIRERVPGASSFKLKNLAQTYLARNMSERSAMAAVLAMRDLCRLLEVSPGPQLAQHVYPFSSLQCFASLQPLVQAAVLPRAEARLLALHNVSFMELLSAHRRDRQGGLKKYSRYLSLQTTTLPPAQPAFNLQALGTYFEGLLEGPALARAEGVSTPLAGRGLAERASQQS
UniProt O60664: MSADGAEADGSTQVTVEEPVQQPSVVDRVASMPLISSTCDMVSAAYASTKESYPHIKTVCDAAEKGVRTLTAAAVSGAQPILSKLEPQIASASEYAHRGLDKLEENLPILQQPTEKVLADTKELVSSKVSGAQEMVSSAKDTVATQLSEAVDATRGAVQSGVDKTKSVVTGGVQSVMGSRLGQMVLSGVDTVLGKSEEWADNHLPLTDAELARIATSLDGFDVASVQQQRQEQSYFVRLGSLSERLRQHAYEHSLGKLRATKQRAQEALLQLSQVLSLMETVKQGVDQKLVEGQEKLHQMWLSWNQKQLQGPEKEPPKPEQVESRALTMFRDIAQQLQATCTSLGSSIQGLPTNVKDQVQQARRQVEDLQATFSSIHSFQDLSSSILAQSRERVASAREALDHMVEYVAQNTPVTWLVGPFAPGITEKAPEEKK
UniProt P00491: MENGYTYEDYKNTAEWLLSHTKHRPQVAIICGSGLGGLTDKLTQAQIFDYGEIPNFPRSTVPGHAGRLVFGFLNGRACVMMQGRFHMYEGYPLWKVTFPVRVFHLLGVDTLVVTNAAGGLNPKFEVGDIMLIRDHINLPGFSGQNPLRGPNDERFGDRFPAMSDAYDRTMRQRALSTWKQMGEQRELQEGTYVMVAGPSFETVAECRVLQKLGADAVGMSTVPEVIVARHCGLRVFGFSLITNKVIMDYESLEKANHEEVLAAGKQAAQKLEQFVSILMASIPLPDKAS
UniProt Q9H8W4: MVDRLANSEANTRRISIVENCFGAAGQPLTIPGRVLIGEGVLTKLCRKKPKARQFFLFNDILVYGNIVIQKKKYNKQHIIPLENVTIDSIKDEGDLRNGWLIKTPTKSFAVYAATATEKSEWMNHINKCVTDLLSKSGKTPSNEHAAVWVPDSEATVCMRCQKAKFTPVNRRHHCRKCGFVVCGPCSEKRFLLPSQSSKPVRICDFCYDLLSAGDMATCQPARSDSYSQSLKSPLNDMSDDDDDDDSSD
UniProt O60568: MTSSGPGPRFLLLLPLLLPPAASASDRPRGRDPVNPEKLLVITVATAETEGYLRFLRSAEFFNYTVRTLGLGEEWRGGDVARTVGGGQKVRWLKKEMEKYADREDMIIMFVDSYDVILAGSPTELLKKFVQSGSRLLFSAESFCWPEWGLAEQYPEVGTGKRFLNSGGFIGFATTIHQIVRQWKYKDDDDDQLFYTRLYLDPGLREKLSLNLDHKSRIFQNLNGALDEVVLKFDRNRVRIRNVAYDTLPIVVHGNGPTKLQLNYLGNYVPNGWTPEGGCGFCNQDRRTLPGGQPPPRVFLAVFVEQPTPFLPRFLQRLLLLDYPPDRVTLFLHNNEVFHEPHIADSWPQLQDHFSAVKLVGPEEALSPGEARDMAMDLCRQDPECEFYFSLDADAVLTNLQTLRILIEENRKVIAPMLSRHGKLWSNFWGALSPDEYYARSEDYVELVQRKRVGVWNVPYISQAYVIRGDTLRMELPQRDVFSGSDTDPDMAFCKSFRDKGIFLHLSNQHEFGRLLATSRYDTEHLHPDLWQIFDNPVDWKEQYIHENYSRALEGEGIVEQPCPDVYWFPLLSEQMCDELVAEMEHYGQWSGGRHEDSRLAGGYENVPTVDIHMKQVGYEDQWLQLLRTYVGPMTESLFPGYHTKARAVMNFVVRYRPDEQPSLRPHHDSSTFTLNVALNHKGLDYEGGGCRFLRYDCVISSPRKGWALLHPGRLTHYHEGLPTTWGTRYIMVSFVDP
UniProt Q96CD2: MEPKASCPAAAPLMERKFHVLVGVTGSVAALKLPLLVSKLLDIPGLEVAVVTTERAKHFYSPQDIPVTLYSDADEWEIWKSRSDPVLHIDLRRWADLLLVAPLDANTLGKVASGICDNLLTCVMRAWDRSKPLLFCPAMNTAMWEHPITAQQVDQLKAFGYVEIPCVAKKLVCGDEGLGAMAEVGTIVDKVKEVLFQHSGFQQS

[2] = compound: Cc1cccc(CC(=O)N2CCc3c2ccc(-c2cn(C)c4ncnc(N)c24)c3F)n1
Method in brief: as §1

[3] = compound: Cc1cn(-c2cc(NC(=O)c3ccc(C)c(Nc4nccc(-c5cccnc5)n4)c3)cc(C(F)(F)F)c2)cn1 [nilotinib]
Method in brief: as §1

[4] = compound: Cc1nc(Nc2n[nH]c3c2CN(C(=O)N[C@H](CN(C)C)c2ccccc2)C3(C)C)c2sccc2n1
Method in brief: as §1

[5] = compound: Cc1nc(Nc2ncc(C(=O)Nc3c(C)cccc3Cl)s2)cc(N2CCN(CCO)CC2)n1 [dasatinib]
Method in brief: as §1

[6] = compound: Cc1ncc(-c2ccnc(Nc3ccc(S(C)(=O)=O)cc3)n2)n1C(C)C
Method in brief: as §1

[7] = compound: Cn1cc(-c2ccc3c(c2)CCN3C(=O)Cc2cccc(C(F)(F)F)c2)c2c(N)ncnc21
Method in brief: as §1

[8] = compound: Cn1cc(-c2ccc3nnc(C(F)(F)c4ccc5ncccc5c4)n3n2)cn1
Method in brief: as §1

[9] = compound: Cn1cncc1[C@@](N)(c1ccc(Cl)cc1)c1ccc2c(c1)c(-c1cccc(Cl)c1)cc(=O)n2C [tipifarnib]
Method in brief: as §1

[10] = compound: FC(F)(F)c1ccc(/C=C/c2nc(COc3ccc(CCCCn4ccnn4)cc3)co2)cc1 [mubritinib]
Method in brief: as §1

[11] = compound: NC(=O)Nc1cc(-c2cccc(F)c2)sc1C(=O)N[C@H]1CCCNC1
Method in brief: as §1

[12] = compound: NC(=O)c1cnc(N[C@@H]2CCCC[C@@H]2N)nc1Nc1cccc(-n2nccn2)c1
Method in brief: as §1

[13] = compound: NC1(c2ccc(-c3nc4ccn5c(=O)[nH]nc5c4cc3-c3ccccc3)cc2)CCC1
Method in brief: as §1

[14] = compound: NCC(=O)Nc1ccc(-n2nc(C(F)(F)F)cc2-c2ccc3c(ccc4ccccc43)c2)cc1
Method in brief: as §1

[15] = compound: Nc1ccccc1NC(=O)c1ccc(CNC(=O)OCc2cccnc2)cc1 [entinostat]
Method in brief: as §1

[16] = compound: O=C(CCCCCCC(=O)Nc1ccccc1)NO [vorinostat]
Method in brief: as §1

[17] = compound: O=C(CCCCCCNC(=O)c1cnc(N(c2ccccc2)c2ccccc2Cl)nc1)NO [citarinostat]
Method in brief: as §1

[18] = compound: O=C(O)c1ccc2c(c1)nc(Nc1cccc(Cl)c1)c1ccncc12 [silmitasertib]
Method in brief: as §1

[19] = compound: O=C1NC(=O)C(c2cnc3ccccn23)=C1c1cn2c3c(cc(F)cc13)CN(C(=O)N1CCCCC1)CC2
Method in brief: as §1

[20] = compound: c1cc(OCCN2CCCCC2)cc(-c2n[nH]c3ccc(-c4nnc[nH]4)cc23)c1
Method in brief: as §1

Row | Target | log2 fold change [1] | log2 fold change [2] | log2 fold change [3] | log2 fold change [4] | log2 fold change [5] | log2 fold change [6] | log2 fold change [7] | log2 fold change [8] | log2 fold change [9] | log2 fold change [10] | log2 fold change [11] | log2 fold change [12] | log2 fold change [13] | log2 fold change [14] | log2 fold change [15] | log2 fold change [16] | log2 fold change [17] | log2 fold change [18] | log2 fold change [19] | log2 fold change [20]
1 | POLR2B (UniProt P30876) | inactive: 0.024 | inactive: -0.005 | inactive: 0.079 | inactive: 0.054 | inactive: -0.055 | active: 0.324 | inactive: -0.054 | inactive: -0.006 | inactive: -0.029 | inactive: -0.014 | inactive: -0.054 | inactive: 0.059 | inactive: -0.043 | inactive: -0.106 | inactive: 0.061 | inactive: -0.089 | inactive: 0 | inactive: 0.1 | inactive: 0.09 | inactive: -0.065
2 | POP7 (UniProt O75817) | inactive: 0.104 | inactive: -0.001 | inactive: 0.043 | inactive: -0.062 | inactive: 0.051 | inactive: -0.044 | inactive: -0.077 | inactive: -0.059 | inactive: 0.014 | inactive: -0.024 | inactive: -0.029 | inactive: 0.056 | inactive: 0.05 | inactive: 0.004 | inactive: 0.023 | inactive: -0.048 | inactive: 0.03 | inactive: 0.009 | inactive: -0.054 | inactive: -0.073
3 | POLA1 (UniProt P09884) | inactive: 0.021 | inactive: 0.021 | inactive: -0.043 | inactive: -0.033 | inactive: -0.173 | inactive: 0.01 | inactive: 0.019 | inactive: 0.014 | inactive: -0.091 | inactive: 0.064 | inactive: -0.014 | inactive: -0.068 | inactive: -0.225 | inactive: -0.04 | inactive: 0.07 | inactive: 0.054 | inactive: 0.155 | inactive: 0.021 | inactive: -0.113 | inactive: 0.227
4 | POGLUT3 (UniProt Q7Z4H8) | inactive: 0.017 | inactive: 0.021 | inactive: 0.001 | inactive: 0.013 | inactive: 0.004 | inactive: -0.054 | inactive: -0.023 | inactive: -0.008 | inactive: 0.047 | inactive: -0.07 | inactive: 0.02 | inactive: 0.042 | inactive: -0.051 | inactive: 0.001 | inactive: 0.013 | inactive: 0.008 | inactive: 0.04 | inactive: 0.026 | inactive: -0.001 | inactive: -0.072
5 | PON2 (UniProt Q15165) | inactive: -0.089 | inactive: 0.004 | inactive: 0.002 | inactive: 0.023 | inactive: -0.064 | inactive: -0.029 | inactive: -0.119 | inactive: 0.065 | inactive: 0.06 | inactive: 0.011 | inactive: 0.03 | inactive: -0.043 | inactive: -0.084 | inactive: 0.04 | inactive: 0.004 | inactive: -0.056 | inactive: 0.078 | inactive: 0.06 | inactive: -0.111 | inactive: -0.036
6 | PPIP5K1 (UniProt Q6PFW1) | inactive: 0.02 | inactive: -0.003 | inactive: 0.078 | inactive: -0.019 | inactive: 0.03 | inactive: -0.029 | inactive: 0.045 | inactive: 0.069 | inactive: -0.017 | inactive: 0.021 | inactive: -0.029 | inactive: -0.027 | inactive: -0.02 | inactive: 0.036 | inactive: -0.03 | inactive: -0.004 | inactive: 0.033 | inactive: -0.005 | inactive: -0.034 | inactive: -0.011
7 | POLR3B (UniProt Q9NW08) | inactive: 0.104 | inactive: 0.045 | inactive: -0.111 | inactive: -0.285 | inactive: -0.238 | inactive: -0.028 | inactive: -0.059 | inactive: 0.089 | inactive: -0.108 | inactive: -0.086 | inactive: -0.05 | inactive: 0.017 | inactive: -0.124 | inactive: -0.009 | inactive: -0.014 | inactive: 0.088 | inactive: -0.022 | inactive: 0.111 | inactive: 0.104 | inactive: -0.047
8 | POLR3G (UniProt O15318) | inactive: -0.049 | inactive: 0.074 | inactive: 0.032 | inactive: -0.041 | inactive: 0.04 | inactive: -0.026 | inactive: 0.008 | inactive: 0.004 | inactive: 0.103 | inactive: 0.069 | inactive: 0.053 | inactive: -0.109 | inactive: 0.003 | inactive: 0.005 | inactive: 0.013 | inactive: 0.032 | inactive: 0.061 | inactive: 0.008 | inactive: 0.009 | inactive: 0.007
9 | POR (UniProt P16435) | inactive: -0.012 | inactive: -0.044 | inactive: 0.004 | inactive: -0.029 | inactive: -0.033 | inactive: 0.001 | inactive: 0.046 | inactive: -0.036 | inactive: -0.004 | inactive: -0.041 | inactive: -0.036 | inactive: 0.011 | inactive: -0.031 | inactive: -0.034 | inactive: -0.005 | inactive: -0.01 | inactive: 0.032 | inactive: 0.01 | inactive: -0.039 | inactive: -0.044
10 | PML (UniProt P29590) | inactive: -0.078 | inactive: 0.029 | inactive: -0.035 | inactive: -0.046 | inactive: -0.036 | inactive: -0.037 | inactive: -0.047 | inactive: -0.003 | inactive: 0.014 | inactive: -0.023 | inactive: 0.021 | inactive: -0.027 | inactive: -0.029 | inactive: 0.015 | inactive: -0.002 | inactive: -0.059 | inactive: 0.019 | inactive: 0.088 | inactive: 0.002 | inactive: -0.042
11 | PLIN3 (UniProt O60664) | inactive: -0.037 | inactive: -0.002 | inactive: 0.01 | inactive: -0.001 | inactive: -0.015 | inactive: -0.008 | inactive: 0.022 | inactive: 0.008 | inactive: -0.059 | inactive: 0.028 | inactive: -0.009 | inactive: -0.043 | inactive: -0.069 | inactive: 0.028 | inactive: 0 | inactive: 0.016 | inactive: 0.013 | inactive: -0.041 | inactive: -0.016 | inactive: -0.029
12 | PNP (UniProt P00491) | inactive: -0.036 | inactive: -0.005 | inactive: 0.013 | inactive: -0.003 | inactive: 0.049 | inactive: -0.004 | inactive: 0.017 | inactive: 0.005 | inactive: 0.034 | inactive: 0.039 | inactive: 0.022 | inactive: -0.003 | inactive: -0.015 | inactive: 0.015 | inactive: -0.036 | inactive: -0.012 | inactive: 0.019 | inactive: 0.005 | inactive: 0.001 | inactive: 0.008
13 | PLEKHF2 (UniProt Q9H8W4) | inactive: -0.033 | inactive: 0.029 | inactive: -0.118 | inactive: -0.066 | inactive: -0.104 | inactive: -0.126 | inactive: 0.088 | inactive: 0.04 | inactive: -0.045 | inactive: 0.019 | inactive: -0.019 | inactive: -0.04 | inactive: -0.241 | inactive: -0.119 | inactive: 0.032 | inactive: 0.04 | inactive: 0.124 | inactive: -0.024 | inactive: -0.047 | inactive: -0.092
14 | POLR2D (UniProt O15514) | inactive: 0.009 | inactive: -0.076 | inactive: -0.028 | inactive: 0.122 | inactive: -0.013 | inactive: 0.202 | inactive: -0.036 | inactive: 0.034 | inactive: -0.01 | inactive: 0.052 | inactive: 0.04 | inactive: 0.145 | inactive: -0.016 | inactive: 0.022 | inactive: -0.026 | inactive: -0.133 | inactive: -0.078 | inactive: 0.049 | inactive: -0.015 | inactive: -0.06
15 | PLOD3 (UniProt O60568) | inactive: 0.095 | inactive: -0.029 | inactive: 0.028 | inactive: 0.044 | inactive: 0.001 | inactive: -0.008 | inactive: -0.064 | inactive: 0.006 | inactive: 0.071 | inactive: -0.057 | inactive: -0.047 | inactive: -0.044 | inactive: -0.008 | inactive: 0.014 | inactive: -0.024 | inactive: -0.021 | inactive: 0.006 | inactive: 0.025 | inactive: 0.024 | inactive: -0.057
16 | PPCDC (UniProt Q96CD2) | inactive: 0.02 | inactive: 0.039 | inactive: -0.063 | inactive: 0.007 | inactive: -0.007 | inactive: 0.036 | inactive: 0.051 | inactive: -0.008 | inactive: 0.004 | inactive: 0.05 | inactive: 0.068 | inactive: 0.005 | inactive: -0.173 | inactive: -0.009 | inactive: -0.011 | inactive: 0.036 | inactive: 0.059 | inactive: 0.016 | inactive: 0.005 | inactive: -0.038

Laid out differently: entries from further up
Row,Target,log2 fold change [1],log2 fold change [2],log2 fold change [3],log2 fold change [4],log2 fold change [5],log2 fold change [6],log2 fold change [7],log2 fold change [8],log2 fold change [9],log2 fold change [10],log2 fold change [11],log2 fold change [12],log2 fold change [13],log2 fold change [14],log2 fold change [15],log2 fold change [16],log2 fold change [17],log2 fold change [18],log2 fold change [19],log2 fold change [20]
4,POGLUT3 (UniProt Q7Z4H8),inactive: 0.017,inactive: 0.021,inactive: 0.001,inactive: 0.013,inactive: 0.004,inactive: -0.054,inactive: -0.023,inactive: -0.008,inactive: 0.047,inactive: -0.07,inactive: 0.02,inactive: 0.042,inactive: -0.051,inactive: 0.001,inactive: 0.013,inactive: 0.008,inactive: 0.04,inactive: 0.026,inactive: -0.001,inactive: -0.072
5,PON2 (UniProt Q15165),inactive: -0.089,inactive: 0.004,inactive: 0.002,inactive: 0.023,inactive: -0.064,inactive: -0.029,inactive: -0.119,inactive: 0.065,inactive: 0.06,inactive: 0.011,inactive: 0.03,inactive: -0.043,inactive: -0.084,inactive: 0.04,inactive: 0.004,inactive: -0.056,inactive: 0.078,inactive: 0.06,inactive: -0.111,inactive: -0.036

— the supplement of paper PMC10849652
